Data from publication doi:10.1101/184499.
These are yes or no findings as the source states them, for the method shown. In cells and extracts the contact can be indirect. Here binding means that the protein was enriched with, or labelled near, the bait; the list need not be complete.

Sequences of proteins named here, by UniProt entry; tags and fusion partners are left off. Residues count along the entry.
UniProt P63104: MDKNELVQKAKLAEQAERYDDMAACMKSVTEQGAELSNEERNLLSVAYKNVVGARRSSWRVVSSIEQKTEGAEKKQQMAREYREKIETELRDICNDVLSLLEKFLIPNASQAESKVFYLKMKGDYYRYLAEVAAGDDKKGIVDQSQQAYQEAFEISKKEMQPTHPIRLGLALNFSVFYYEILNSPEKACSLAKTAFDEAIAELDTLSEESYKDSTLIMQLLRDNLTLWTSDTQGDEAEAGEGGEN
UniProt O35129: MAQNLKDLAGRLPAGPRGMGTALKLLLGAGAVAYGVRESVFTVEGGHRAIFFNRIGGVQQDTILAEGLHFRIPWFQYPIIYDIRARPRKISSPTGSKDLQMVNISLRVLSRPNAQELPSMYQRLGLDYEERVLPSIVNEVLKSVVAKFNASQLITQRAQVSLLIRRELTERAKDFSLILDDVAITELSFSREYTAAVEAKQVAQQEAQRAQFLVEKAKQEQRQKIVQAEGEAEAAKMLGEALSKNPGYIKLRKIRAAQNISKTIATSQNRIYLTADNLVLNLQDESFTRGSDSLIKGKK
UniProt Q9DBG6, residues 23-631: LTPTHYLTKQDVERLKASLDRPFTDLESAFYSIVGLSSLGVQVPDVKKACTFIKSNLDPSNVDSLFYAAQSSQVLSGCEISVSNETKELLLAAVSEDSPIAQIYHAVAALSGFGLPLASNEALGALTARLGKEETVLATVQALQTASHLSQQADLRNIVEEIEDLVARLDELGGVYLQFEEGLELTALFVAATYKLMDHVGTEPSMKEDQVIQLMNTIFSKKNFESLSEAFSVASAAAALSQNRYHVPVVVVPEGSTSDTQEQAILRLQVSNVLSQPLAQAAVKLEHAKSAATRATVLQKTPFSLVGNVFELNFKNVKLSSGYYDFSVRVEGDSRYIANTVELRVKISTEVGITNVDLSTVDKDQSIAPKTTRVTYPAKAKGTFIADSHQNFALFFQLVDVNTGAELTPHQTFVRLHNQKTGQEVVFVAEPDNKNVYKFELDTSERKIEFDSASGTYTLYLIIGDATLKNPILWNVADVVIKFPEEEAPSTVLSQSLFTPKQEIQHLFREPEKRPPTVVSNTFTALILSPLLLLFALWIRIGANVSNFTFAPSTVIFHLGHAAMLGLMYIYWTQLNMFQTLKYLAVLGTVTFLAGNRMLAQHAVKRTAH

B1: Ptrf/Cavin1 (protein, UniProt O54724 1-392)
chain: MEDVTLHIVERPYSGFPDASSEGPEPTQGEARATEEPSGTGSDELIKSDQVNGVLVLSLLDKIIGAVDQIQLTQAQLEERQAEMEGAVQSIQGELSKLGKAHATTSNTVSKLLEKVRKVSVNVKTVRGSLERQAGQIKKLEVNEAELLRRRNFKVMIYQDEVKLPAKLSVSKSLKESEALPEKEGDELGEGERPEDDTAAIELSSDEAVEVEEVIEESRAERIKRSGLRRVDDFKKAFSKEKMEKTKVRTRENLEKTRLKTKENLEKTRHTLEKRMNKLGTRLVPVERREKLKTSRDKLRKSFTPDHVVYARSKTAVYKVPPFTFHVKKIREGEVEVLKATEMVEVGPEDDEVGAERGEATDLLRGSSPDVHTLLEITEESDAVLVDKSDSD
B2: Nono (protein, UniProt Q99K48 1-473)
chain: MQSNKAFNLEKQNHTPRKHHQHHHQQHHQQQQQQQQQQPPPPIPANGQQASSQNEGLTIDLKNFRKPGEKTFTQRSRLFVGNLPPDITEEEMRKLFEKYGKAGEVFIHKDKGFGFIRLETRTLAEIAKVELDNMPLRGKQLRVRFACHSASLTVRNLPQYVSNELLEEAFSVFGQVERAVVIVDDRGRPSGKGIVEFSGKPAARKALDRCSEGSFLLTTFPRPVTVEPMDQLDDEEGLPEKLVIKNQQFHKEREQPPRFAQPGSFEYEYAMRWKALIEMEKQQQDQVDRNIKEAREKLEMEMEAARHEHQVMLMRQDLMRRQEELRRMEELHNQEVQKRKQLELRQEEERRRREEEMRRQQEEMMRRQQEGFKGTFPDAREQEIRMGQMAMGGAMGINNRGAMPPAPVPPGTPAPPGPATMMPDGTLGLTPPTTERFGQAATMEGIGAIGGTPPAFNRPAPGAEFAPNKRRRY
B3: Syncrip/Hnrnpq (protein, UniProt Q7TMK9 1-623)
chain: MATEHVNGNGTEEPMDTTSAVIHSENFQTLLDAGLPQKVAEKLDEIYVAGLVAHSDLDERAIEALKEFNEDGALAVLQQFKDSDLSHVQNKSAFLCGVMKTYRQREKQGTKVADSSKGPDEAKIKALLERTGYTLDVTTGQRKYGGPPPDSVYSGQQPSVGTEIFVGKIPRDLFEDELVPLFEKAGPIWDLRLMMDPLTGLNRGYAFVTFCTKEAAQEAVKLYNNHEIRSGKHIGVCISVANNRLFVGSIPKSKTKEQILEEFSKVTEGLTDVILYHQPDDKKKNRGFCFLEYEDHKTAAQARRRLMSGKVKVWGNVGTVEWADPIEDPDPEVMAKVKVLFVRNLANTVTEEILEKSFSQFGKLERVKKLKDYAFIHFDERDGAVKAMEEMNGKDLEGENIEIVFAKPPDQKRKERKAQRQAAKNQMYDDYYYYGPPHMPPPTRGRGRGGRGGYGYPPDYYGYEDYYDYYGYDYHNYRGGYEDPYYGYEDFQVGARGRGGRGARGAAPSRGRGAAPPRGRAGYSQRGGPGSARGVRGARGGAQQQRGRGVRGARGGRGGNVGGKRKADGYNQPDTKRRQTNNQNWGSQPIAQQPLQGGDHSGNYGYKSENQEFYQDTFGQQWK
B4: Sfpq (protein, UniProt Q8VIJ6 1-699)
chain: MSRDRFRSRGGGGGGFHRRGGGGGRGGLHDFRSPPPGMGLNQNRGPMGPGPGGPKPPLPPPPPHQQQQQPPPQQPPPQQPPPHQQPPPHQPPHQQPPPPPQESKPVVPQGPGSAPGVSSAPPPAVSAPPANPPTTGAPPGPGPTPTPPPAVPSTAPGPPPPSTPSSGVSTTPPQTGGPPPPPAGGAGPGPKPGPGPGGPKGGKMPGGPKPGGGPGMGAPGGHPKPPHRGGGEPRGGRQHHAPYHQQHHQGPPPGGPGPRTEEKISDSEGFKANLSLLRRPGEKTYTQRCRLFVGNLPADITEDEFKRLFAKYGEPGEVFINKGKGFGFIKLESRALAEIAKAELDDTPMRGRQLRVRFATHAAALSVRNLSPYVSNELLEEAFSQFGPIERAVVIVDDRGRSTGKGIVEFASKPAARKAFERCSEGVFLLTTTPRPVIVEPLEQLDDEDGLPEKLAQKNPMYQKERETPPRFAQHGTFEYEYSQRWKSLDEMEKQQREQVEKNMKDAKDKLESEMEDAYHEHQANLLRQDLMRRQEELRRMEELHSQEMQKRKEMQLRQEEERRRREEEMMIRQREMEEQMRRQREESYSRMGYMDPRERDMRMGGGGTMNMGDPYGSGGQKFPPLGGGGGIGYEANPGVPPATMSGSMMGSDMRTERFGQGGAGPVGGQGPRGMGPGTPAGYGRGREEYEGPNKKPRF
B5: Hnrnpf (protein, UniProt Q9Z2X1 1-415)
chain: MMLGPEGGEGYVVKLRGLPWSCSIEDVQNFLSDCTIHDGVAGVHFIYTREGRQSGEAFVELESEDDVKLALKKDRESMGHRYIEVFKSHRTEMDWVLKHSGPNSADSANDGFVRLRGLPFGCTKEEIVQFFSGLEIVPNGITLPVDPEGKITGEAFVQFASQELAEKALGKHKERIGHRYIEVFKSSQEEVRSYSDPPLKFMSVQRPGPYDRPGTARRYIGIVKQAGLDRMRSGAYSAGYGGYEEYSGLSDGYGFTTDLFGRDLSYCLSGMYDHRYGDSEFTVQSTTGHCVHMRGLPYKATENDIYNFFSPLNPVRVHIEIGPDGRVTGEADVEFATHEEAVAAMSKDRANMQHRYIELFLNSTTGASNGAYSSQVMQGMGVSAAQATYSGLESQSVSGCYGAGYSGQNSMGGYD

Molecular target: TAP-epitope tagged human 14-3-3ζ (human) (UniProt P63104)
Assay: affinity purification with mass spectrometry

binding, binds:
Prohibitin-2 (from UniProt O35129 1-299)
Rpn2 (from UniProt Q9DBG6 23-631)
Hnrnpk (from UniProt P61979 1-463)
B1
B2
B3
B4
B5
